PubChem BioAssay AID1259405, NCATS, 2018
The whole screen tested about 50,000 reagents; below is a random part of them. Over the whole deposit, about 4,000 (8%) are marked active. 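Mouse siRNA library applied to hamster cells; one well for each siRNA.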 Reagents against one gene are numbered here.

- Assay: 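Knock-downs that lift recombinant protein yield in hamster ovary cells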 (primary screen)
- System: Chinese hamster CHO-K1 ovary cells with stable secreted eGFP expression
- Reagents: single siRNA against mouse genes, 0.8 pmol siRNA per well (2 µl of 400 nM stock)
- Timing: 3 days
- Detection: 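Percent of the per-plate non-targeting control median for intracellular GFP per well by laser scanning cytometry and for cell viability by ATP luminescence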
- Scale: GFP, % of control: higher = more GFP per well, higher productivity; viability (ATP), % of control: higher = more viable cells (more ATP)
- Hit rule: 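Called active when intracellular GFP, relative to negative control, is at or above 120%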

The opening 2 records as a preview:
gene symbol	siRNA no.	GFP, % of control	viability (ATP), % of control	Call
Fam184b	1	95.9	85.9	inactive
Fam184b	2	20.3	27.9	inactive

Main list, repeating the preview:
gene symbol	siRNA no.	GFP, % of control	viability (ATP), % of control	Call
Fam184b	1	95.9	85.9	inactive
Fam184b	2	20.3	27.9	inactive
Fam184b	3	46.1	72.7	inactive
Nfix	1	113	114	inactive
Nfix	2	52	72.4	inactive
Nfix	3	123	91.9	active
Tex13b	1	76.3	87.1	inactive
Tex13b	2	68.9	102	inactive
Tex13b	3	76.1	117	inactive
Stim1	1	140	82.9	active
Stim1	2	86.3	69.4	inactive
Stim1	3	54.1	67	inactive
Edil3	1	96.8	90.6	inactive
Edil3	2	64.4	81.1	inactive
Rab15	1	116	32.8	inactive
Rab15	2	48.2	60.4	inactive
Rab15	3	84.8	78.4	inactive
Fam161b	1	93.8	50.9	inactive
Fam161b	2	83	83.3	inactive
Fam161b	3	71.8	56.1	inactive
1700034E13Rik	1	44.1	25.3	inactive
1700034E13Rik	2	46.7	52.9	inactive
1700034E13Rik	3	86	78.1	inactive
Rcvrn	1	70.7	74.8	inactive
Rcvrn	2	110	91.2	inactive
Rcvrn	3	76.1	40.2	inactive
Mrps16	1	61.9	67.9	inactive
Mrps16	2	102	75.2	inactive
Mrps16	3	50.2	65	inactive
Cbx4	1	60	70.2	inactive
Cbx4	2	120	101	active
Cbx4	3	50.2	53.9	inactive
Usp16	1	86.6	80.9	inactive
Usp16	2	69.8	71.2	inactive
Usp16	3	71.8	72.1	inactive
